Data published in the supplement of paper PMC10849652.
The other results are listed elsewhere or left out. Residues, ends and D or L forms follow the SMILES beside them. *: point of attachment. Cbz = O=C(OCc1ccccc1)*

By UniProt entry, the sequences of proteins in these tests, tags left out. Where a name states a change or a piece, a line headed by the entry shows the natural chain unless it says otherwise.
UniProt Q9UPY8, whole entry, looked up: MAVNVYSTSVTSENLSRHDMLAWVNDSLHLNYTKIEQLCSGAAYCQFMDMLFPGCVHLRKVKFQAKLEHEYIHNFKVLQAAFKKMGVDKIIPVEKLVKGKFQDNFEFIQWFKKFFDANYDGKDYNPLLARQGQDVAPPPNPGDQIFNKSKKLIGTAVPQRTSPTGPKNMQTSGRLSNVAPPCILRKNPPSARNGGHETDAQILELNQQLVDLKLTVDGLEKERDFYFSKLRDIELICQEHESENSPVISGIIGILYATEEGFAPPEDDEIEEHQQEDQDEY
UniProt O95819: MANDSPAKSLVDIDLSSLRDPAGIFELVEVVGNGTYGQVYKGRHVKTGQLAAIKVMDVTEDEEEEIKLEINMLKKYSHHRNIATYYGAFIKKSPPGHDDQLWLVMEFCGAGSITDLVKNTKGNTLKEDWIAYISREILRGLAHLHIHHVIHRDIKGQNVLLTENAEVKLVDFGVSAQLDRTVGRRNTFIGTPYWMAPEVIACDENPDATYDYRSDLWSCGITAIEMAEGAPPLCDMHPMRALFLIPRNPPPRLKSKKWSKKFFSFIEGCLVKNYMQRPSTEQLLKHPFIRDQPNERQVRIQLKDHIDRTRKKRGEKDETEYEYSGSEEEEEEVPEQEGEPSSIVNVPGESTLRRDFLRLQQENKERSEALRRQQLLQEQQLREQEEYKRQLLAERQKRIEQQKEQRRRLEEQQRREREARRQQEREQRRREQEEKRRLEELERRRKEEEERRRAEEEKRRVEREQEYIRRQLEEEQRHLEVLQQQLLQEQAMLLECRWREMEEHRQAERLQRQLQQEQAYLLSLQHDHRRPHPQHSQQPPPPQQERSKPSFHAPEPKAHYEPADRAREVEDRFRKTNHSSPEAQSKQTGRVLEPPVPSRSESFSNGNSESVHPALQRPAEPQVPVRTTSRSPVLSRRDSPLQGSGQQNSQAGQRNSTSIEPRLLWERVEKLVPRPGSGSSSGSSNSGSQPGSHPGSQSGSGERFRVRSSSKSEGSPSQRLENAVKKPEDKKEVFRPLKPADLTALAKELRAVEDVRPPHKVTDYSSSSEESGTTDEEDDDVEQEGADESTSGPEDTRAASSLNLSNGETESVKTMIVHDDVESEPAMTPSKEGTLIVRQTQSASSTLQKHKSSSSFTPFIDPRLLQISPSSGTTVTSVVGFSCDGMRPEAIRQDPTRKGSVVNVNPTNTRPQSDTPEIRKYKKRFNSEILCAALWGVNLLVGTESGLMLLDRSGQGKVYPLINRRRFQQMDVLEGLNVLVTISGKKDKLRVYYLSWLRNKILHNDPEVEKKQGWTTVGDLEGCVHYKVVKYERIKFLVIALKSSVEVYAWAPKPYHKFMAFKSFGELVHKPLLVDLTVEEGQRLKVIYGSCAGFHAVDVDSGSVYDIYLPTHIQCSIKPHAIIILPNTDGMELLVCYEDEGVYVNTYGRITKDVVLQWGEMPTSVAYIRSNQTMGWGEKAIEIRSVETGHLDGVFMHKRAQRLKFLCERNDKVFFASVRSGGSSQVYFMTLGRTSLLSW
UniProt Q86X29: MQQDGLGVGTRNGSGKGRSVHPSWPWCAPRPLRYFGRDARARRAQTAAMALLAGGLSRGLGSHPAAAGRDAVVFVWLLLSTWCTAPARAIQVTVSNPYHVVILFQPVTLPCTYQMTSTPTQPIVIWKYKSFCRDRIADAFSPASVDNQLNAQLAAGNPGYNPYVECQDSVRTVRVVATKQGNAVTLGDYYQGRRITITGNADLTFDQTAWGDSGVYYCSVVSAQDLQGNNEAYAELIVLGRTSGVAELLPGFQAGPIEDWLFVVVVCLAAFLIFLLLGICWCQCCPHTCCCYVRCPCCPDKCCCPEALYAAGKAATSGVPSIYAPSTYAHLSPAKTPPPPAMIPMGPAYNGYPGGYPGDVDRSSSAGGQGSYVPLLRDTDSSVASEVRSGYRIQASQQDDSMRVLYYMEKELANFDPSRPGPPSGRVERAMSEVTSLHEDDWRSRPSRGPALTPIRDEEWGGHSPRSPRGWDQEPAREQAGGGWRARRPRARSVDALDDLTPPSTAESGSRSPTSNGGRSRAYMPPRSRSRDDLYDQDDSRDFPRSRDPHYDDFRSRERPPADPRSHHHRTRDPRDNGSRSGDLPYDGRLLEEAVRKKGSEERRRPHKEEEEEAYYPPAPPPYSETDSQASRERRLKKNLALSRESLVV
UniProt Q9Y2E5: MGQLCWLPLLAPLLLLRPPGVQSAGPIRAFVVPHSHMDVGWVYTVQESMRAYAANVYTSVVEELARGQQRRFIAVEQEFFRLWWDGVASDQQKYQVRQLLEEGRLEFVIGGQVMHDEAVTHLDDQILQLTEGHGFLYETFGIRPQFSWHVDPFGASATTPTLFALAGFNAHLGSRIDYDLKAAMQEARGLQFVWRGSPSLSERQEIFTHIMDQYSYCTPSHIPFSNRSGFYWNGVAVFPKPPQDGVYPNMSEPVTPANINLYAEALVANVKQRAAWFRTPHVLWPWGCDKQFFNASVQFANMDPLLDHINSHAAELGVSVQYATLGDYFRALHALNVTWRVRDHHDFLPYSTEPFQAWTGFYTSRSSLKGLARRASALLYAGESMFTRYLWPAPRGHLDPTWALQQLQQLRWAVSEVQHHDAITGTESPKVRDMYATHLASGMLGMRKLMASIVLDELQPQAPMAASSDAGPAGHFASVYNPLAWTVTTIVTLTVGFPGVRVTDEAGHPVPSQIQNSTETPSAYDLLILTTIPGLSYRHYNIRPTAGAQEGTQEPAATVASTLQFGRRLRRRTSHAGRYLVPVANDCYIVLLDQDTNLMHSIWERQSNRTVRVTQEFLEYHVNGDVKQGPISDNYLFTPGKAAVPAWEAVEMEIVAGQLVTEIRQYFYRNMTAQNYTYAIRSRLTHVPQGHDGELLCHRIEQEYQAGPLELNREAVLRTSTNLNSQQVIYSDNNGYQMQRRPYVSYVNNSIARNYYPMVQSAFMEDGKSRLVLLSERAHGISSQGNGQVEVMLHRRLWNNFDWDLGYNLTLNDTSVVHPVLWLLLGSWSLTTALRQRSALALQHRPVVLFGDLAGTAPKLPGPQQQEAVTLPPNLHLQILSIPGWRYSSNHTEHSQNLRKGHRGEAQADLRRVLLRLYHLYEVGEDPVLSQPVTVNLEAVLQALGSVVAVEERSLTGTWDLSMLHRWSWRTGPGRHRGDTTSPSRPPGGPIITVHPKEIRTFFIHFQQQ
UniProt O95232: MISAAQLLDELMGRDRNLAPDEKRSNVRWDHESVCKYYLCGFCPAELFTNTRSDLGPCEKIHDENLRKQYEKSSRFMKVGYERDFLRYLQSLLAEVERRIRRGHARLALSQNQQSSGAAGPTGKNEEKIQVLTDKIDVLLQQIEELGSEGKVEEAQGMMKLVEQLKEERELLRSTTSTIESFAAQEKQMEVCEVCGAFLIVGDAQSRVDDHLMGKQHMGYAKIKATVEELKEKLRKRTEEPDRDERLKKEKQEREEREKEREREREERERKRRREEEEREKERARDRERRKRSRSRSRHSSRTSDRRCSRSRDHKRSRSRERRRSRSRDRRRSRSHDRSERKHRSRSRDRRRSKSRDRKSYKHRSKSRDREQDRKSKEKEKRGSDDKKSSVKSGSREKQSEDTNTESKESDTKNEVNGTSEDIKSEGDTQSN
UniProt Q9Y2U5: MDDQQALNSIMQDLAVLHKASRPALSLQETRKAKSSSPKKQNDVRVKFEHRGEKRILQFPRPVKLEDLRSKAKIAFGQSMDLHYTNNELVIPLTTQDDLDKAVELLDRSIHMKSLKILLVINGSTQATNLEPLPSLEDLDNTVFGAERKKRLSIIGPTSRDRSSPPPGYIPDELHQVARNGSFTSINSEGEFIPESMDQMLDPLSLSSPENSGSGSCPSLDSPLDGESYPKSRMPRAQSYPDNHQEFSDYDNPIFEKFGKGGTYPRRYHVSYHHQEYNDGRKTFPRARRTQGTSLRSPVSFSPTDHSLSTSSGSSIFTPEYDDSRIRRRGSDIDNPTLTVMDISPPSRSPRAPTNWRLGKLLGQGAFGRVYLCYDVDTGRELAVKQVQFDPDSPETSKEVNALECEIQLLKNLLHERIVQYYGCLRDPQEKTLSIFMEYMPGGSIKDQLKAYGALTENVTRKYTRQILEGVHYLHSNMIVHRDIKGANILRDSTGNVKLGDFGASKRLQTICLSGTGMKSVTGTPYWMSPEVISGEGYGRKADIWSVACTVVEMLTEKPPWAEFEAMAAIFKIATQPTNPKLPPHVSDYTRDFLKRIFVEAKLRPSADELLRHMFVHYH
UniProt Q16539, whole entry, looked up: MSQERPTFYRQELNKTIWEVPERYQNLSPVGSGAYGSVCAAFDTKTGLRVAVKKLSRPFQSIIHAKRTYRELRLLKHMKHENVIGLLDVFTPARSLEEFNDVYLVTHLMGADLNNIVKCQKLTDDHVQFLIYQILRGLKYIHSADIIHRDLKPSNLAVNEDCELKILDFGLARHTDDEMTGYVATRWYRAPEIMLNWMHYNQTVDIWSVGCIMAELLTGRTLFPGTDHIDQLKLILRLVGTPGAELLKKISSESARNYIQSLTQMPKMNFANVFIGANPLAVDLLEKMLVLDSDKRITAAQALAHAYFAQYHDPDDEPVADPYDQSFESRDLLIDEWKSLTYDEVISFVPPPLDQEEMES
UniProt Q13257, whole entry, looked up: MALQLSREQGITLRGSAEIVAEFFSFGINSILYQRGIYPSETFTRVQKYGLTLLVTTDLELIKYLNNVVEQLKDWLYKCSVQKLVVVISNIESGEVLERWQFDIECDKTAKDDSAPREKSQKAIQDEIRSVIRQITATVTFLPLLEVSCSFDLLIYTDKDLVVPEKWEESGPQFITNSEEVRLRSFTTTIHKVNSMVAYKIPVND
UniProt O94822: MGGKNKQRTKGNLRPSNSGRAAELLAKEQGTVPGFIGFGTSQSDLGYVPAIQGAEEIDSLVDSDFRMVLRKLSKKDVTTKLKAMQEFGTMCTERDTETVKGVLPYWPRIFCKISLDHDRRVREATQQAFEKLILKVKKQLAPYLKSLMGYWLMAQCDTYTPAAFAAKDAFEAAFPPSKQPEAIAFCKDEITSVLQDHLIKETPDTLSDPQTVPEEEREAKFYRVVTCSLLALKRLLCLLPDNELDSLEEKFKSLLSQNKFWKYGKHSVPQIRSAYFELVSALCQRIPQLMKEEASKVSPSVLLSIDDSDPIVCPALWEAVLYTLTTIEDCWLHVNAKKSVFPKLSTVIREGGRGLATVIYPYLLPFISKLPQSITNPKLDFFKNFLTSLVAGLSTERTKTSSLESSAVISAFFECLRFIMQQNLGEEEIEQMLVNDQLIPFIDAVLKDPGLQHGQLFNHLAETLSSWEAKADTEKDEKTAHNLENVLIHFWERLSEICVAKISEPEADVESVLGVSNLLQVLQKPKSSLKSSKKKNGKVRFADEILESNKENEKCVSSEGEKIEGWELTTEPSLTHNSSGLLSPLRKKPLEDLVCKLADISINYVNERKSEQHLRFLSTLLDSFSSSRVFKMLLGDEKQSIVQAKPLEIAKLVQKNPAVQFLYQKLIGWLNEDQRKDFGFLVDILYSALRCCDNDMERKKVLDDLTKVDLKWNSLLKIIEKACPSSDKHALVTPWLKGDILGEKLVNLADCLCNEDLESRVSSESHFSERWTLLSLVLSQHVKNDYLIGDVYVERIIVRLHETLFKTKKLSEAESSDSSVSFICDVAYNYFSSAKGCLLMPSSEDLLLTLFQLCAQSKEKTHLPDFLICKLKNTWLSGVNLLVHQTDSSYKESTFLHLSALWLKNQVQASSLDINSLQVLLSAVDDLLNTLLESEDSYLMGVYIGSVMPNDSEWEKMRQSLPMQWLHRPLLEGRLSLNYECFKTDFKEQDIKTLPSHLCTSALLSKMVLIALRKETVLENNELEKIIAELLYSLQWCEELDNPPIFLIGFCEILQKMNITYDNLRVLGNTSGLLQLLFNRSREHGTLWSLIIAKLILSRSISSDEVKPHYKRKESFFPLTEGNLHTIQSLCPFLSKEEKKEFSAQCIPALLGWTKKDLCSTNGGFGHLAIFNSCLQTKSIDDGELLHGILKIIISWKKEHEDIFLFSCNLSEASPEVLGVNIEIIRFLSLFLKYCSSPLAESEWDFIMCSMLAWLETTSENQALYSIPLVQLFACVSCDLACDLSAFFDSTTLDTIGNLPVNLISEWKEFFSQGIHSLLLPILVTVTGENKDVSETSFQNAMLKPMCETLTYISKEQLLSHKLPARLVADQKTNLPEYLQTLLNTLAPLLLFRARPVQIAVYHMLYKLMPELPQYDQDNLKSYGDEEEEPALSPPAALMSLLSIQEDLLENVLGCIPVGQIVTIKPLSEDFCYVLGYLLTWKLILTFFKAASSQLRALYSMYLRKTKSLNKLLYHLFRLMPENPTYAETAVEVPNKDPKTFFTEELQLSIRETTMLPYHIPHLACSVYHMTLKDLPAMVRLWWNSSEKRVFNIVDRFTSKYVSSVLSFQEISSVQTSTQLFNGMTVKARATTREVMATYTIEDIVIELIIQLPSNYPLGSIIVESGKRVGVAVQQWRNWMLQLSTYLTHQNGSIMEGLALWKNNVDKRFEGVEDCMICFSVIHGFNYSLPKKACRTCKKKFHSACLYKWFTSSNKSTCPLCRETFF

Columns and labels:
Experiment in all cases: log2 fold change, soluble protein after heating vs DMSO (PISA); higher = thermal stabilisation; K562 cells, 10 uM, 30 min; active = over 0.2 and 3.5 SD of the protein, either way, in both replicates (recomputed)
[1] = compound: C1COCCN1CCN2C3=CC=CC=C3N=C2NC(=O)C4=CC(=CC=C4)[N+](=O)[O-] [IRAK-1-4 Inhibitor I]
How it was run: (§1)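 Soluble protein was quantified by TMTpro 16plex LC-MS/MS after channel sums were equalised. It was obtained as the supernatant after 21,000xg for 90 min from pooled aliquots of K562 cells (2×10^6 cells/mL, 10 μM compound, 30 min) heated for 3 min across 48°C-58°C and extracted in PBS with 0.5% NP-40 at 4°C. Thermal stability values are relative to control samples and come from duplicates. They are given as log2 fold changes.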

[2] = compound: C=CC(=O)N1CCC[C@@H](n2nc(-c3ccc(Oc4ccccc4)cc3)c3c(N)ncnc32)C1 [ibrutinib]
How it was run: as §1

[3] = compound: CC(=O)c1cnc2ccc(-c3cc(Cl)c(O)c(Cl)c3)nc2c1N[C@H]1CC[C@H](CN(C)C)CC1
How it was run: as §1

[4] = compound: CC(C)(C)Cn1c(N)nc2ccc(-c3[nH]c(C(C)(C)C)nc3-c3ccc(F)cc3)nc21 [ralimetinib]
How it was run: as §1

[5] = compound: CC(C)(O)CC(=O)NCCn1ccc2ncnc(Nc3ccc(Oc4cccc(C(F)(F)F)c4)c(Cl)c3)c21
How it was run: as §1

[6] = compound: CC(C)C1=C2N=C(C=C(N2N=C1)NCC3=CC=CC=C3)NCCCCCCN
How it was run: as §1

[7] = compound: CC(C)C[C@@H](C=O)NC(=O)[C@H](CC(C)C)NC(=O)[C@H](CC(C)C)NC(=O)OCc1ccccc1
How it was run: as §1

[8] = compound: CC(C)N(C[C@H]1O[C@@H](n2cnc3c(N)ncnc32)[C@H](O)[C@@H]1O)[C@H]1C[C@@H](CCc2nc3cc(C(C)(C)C)ccc3[nH]2)C1 [pinometostat]
How it was run: as §1

[9] = compound: CC1=C(C2=C(C=C1)C(=O)C3=CC=CC=C3N2CCCN)C
How it was run: as §1

[10] = compound: CC1=C(C=C(C=C1)NC(=O)C2=CC(=CC=C2)C(C)(C)C#N)NC3=CC4=C(C=C3)N=CN(C4=O)C
How it was run: as §1

[11] = compound: CC1=C(C=C(C=C1)NC(=O)C2=CC(=CC=C2)N(C)C)NC(=O)C3=CC=C(C=C3)O
How it was run: as §1

[12] = compound: CC1=CC=C(C=C1)SC2=C3C=C(SC3=CN=C2)C(=O)N
How it was run: as §1

[13] = compound: CC1=NC(=CC=C1)C2=C(N=C(N2)C(C)(C)C)C3=CC4=NC=CN=C4C=C3
How it was run: as §1

[14] = compound: CCCCN(Cc1ccc(C(=O)NO)cc1)C(=O)Nc1ccccc1 [Nexturastat A]
How it was run: as §1

[15] = compound: CCCS(=O)(=O)Nc1ccc(F)c(C(=O)c2c[nH]c3ncc(-c4ccc(Cl)cc4)cc23)c1F [vemurafenib]
How it was run: as §1

[16] = compound: CCCS(=O)(=O)Nc1ccc(F)c(C(=O)c2c[nH]c3ncc(Cl)cc23)c1F
How it was run: as §1

[17] = compound: CCCc1cc(C)[nH]c(=O)c1CNC(=O)c1cc(-c2ccnc(N3CCN(C)CC3)c2)cc2c1cnn2C(C)C
How it was run: as §1

[18] = compound: CCN(CC)Cc1ccc2cc(COC(=O)Nc3ccc(C(=O)NO)cc3)ccc2c1 [givinostat]
How it was run: as §1

[19] = compound: CCN(CCCOc1ccc2c(Nc3cc(CC(=O)Nc4cccc(F)c4)[nH]n3)ncnc2c1)CCOP(=O)(O)O [barasertib]
How it was run: as §1

[20] = compound: CC1=C(C(CC(=O)N1)C2=CC=C(C=C2)C(F)(F)F)C(=O)NC3=C(C=C4C(=C3)C=NN4)F
How it was run: as §1

Target | log2 fold change [1] | log2 fold change [2] | log2 fold change [3] | log2 fold change [4] | log2 fold change [5] | log2 fold change [6] | log2 fold change [7] | log2 fold change [8] | log2 fold change [9] | log2 fold change [10] | log2 fold change [11] | log2 fold change [12] | log2 fold change [13] | log2 fold change [14] | log2 fold change [15] | log2 fold change [16] | log2 fold change [17] | log2 fold change [18] | log2 fold change [19] | log2 fold change [20]
MAPRE3 (UniProt Q9UPY8) | inactive: 0.027 | inactive: -0.044 | inactive: -0.003 | inactive: -0.142 | inactive: -0.049 | inactive: -0.079 | inactive: -0.033 | inactive: 0.019 | inactive: -0.029 | inactive: 0 | inactive: -0.002 | inactive: -0.021 | inactive: 0.074 | inactive: -0.07 | inactive: 0.041 | inactive: 0.06 | inactive: 0.136 | inactive: -0.037 | inactive: 0.027 | 
MAP1LC3B2 (UniProt A6NCE7) | inactive: -0.002 | inactive: -0.053 | inactive: -0.059 | inactive: -0.026 | inactive: 0.008 | inactive: -0.087 | inactive: 0.009 | inactive: -0.008 | inactive: -0.01 | inactive: 0.021 | inactive: -0.034 | inactive: -0.029 | inactive: 0.04 | inactive: -0.028 | inactive: 0.088 | inactive: 0.01 | inactive: 0.041 | inactive: 0.038 | inactive: 0 | 
MAP4 (UniProt E7EVA0) | inactive: -0.058 | inactive: -0.036 | inactive: -0.022 | inactive: 0.088 | inactive: 0.013 | inactive: -0.025 | inactive: 0.049 | inactive: 0.104 | inactive: 0.027 | inactive: 0 | inactive: 0.008 | inactive: -0.03 | inactive: -0.061 | inactive: 0.161 | inactive: -0.046 | inactive: -0.002 | inactive: 0.024 | inactive: 0.091 | inactive: 0.061 | 
LSS (UniProt P48449) | inactive: -0.119 | inactive: -0.087 | inactive: -0.084 | inactive: 0.147 | inactive: 0.099 | inactive: 0.199 | inactive: 0.077 | inactive: -0.116 | inactive: -0.195 | inactive: -0.032 | inactive: -0.122 | inactive: -0.071 | inactive: 0.054 | inactive: 0.012 | inactive: 0.03 | inactive: 0.073 | inactive: 0 | active: 0.766 | inactive: 0.382 | 
MAP4K4 isoform 3 (UniProt O95819) | inactive: 0 | inactive: 0.043 | active: -1.13 | inactive: -0.039 | inactive: -0.023 | inactive: -0.027 | inactive: 0.024 | inactive: 0.046 | inactive: 0.073 | inactive: -0.166 | inactive: 0.013 | inactive: 0.022 | inactive: 0.012 | inactive: 0.033 | inactive: -0.007 | inactive: 0.028 | inactive: -0.02 | inactive: 0.017 | inactive: -0.012 | 
LSR (UniProt Q86X29) | inactive: 0.053 | inactive: 0.006 | inactive: -0.139 | inactive: -0.009 | inactive: 0.058 | inactive: 0.093 | inactive: 0.086 | inactive: -0.046 | inactive: -0.008 | inactive: -0.051 | inactive: 0.016 | inactive: -0.05 | inactive: -0.05 | inactive: -0.074 | inactive: -0.028 | inactive: -0.061 | inactive: -0.019 | inactive: -0.046 | inactive: -0.016 | 
MAN2B2 (UniProt Q9Y2E5) | inactive: 0.086 | inactive: -0.079 | inactive: -0.171 | inactive: 0.029 | inactive: -0.033 | inactive: -0.078 | inactive: 0.043 | inactive: 0.089 | inactive: -0.048 | inactive: 0.017 | inactive: 0.049 | inactive: 0.033 | inactive: -0.056 | inactive: -0.062 | inactive: -0.105 | inactive: -0.17 | inactive: 0.139 | inactive: 0.014 | inactive: 0.041 | 
LUC7L3 (UniProt O95232) | inactive: -0.123 | inactive: -0.037 | active: -0.409 | inactive: -0.024 | inactive: 0.024 | inactive: -0.04 | inactive: 0.007 | inactive: -0.023 | inactive: 0.109 | inactive: -0.046 | inactive: 0.034 | inactive: -0.036 | inactive: 0.086 | inactive: -0.008 | inactive: 0.024 | inactive: 0.013 | inactive: -0.009 | inactive: 0.003 | inactive: 0.022 | 
MAPK12 (UniProt P53778) | inactive: 0.074 | inactive: 0.066 | inactive: 0.201 | inactive: -0.046 | inactive: 0.001 | inactive: 0.388 | inactive: -0.005 | inactive: -0.004 | inactive: -0.025 | inactive: -0.043 | inactive: 0.017 | inactive: -0.022 | inactive: 0.09 | inactive: -0.112 | inactive: 0.019 | inactive: 0.104 | inactive: 0.016 | inactive: -0.058 | inactive: -0.031 | 
MADD isoform 2 (UniProt Q8WXG6) | inactive: -0.092 | inactive: -0.098 | inactive: 0.01 | inactive: 0.105 | inactive: -0.019 | inactive: -0.147 | inactive: 0.131 | inactive: 0.089 | inactive: -0.018 | inactive: 0.079 | inactive: -0.02 | inactive: 0.113 | inactive: -0.03 | inactive: 0.205 |  | inactive: 0.005 | inactive: -0.056 | inactive: 0.106 | inactive: 0.002 | inactive: -0.04
MAPK3 (UniProt P27361) | inactive: 0.043 | inactive: 0.023 | inactive: 0.019 | inactive: 0.029 | inactive: -0.061 | inactive: -0.006 | inactive: -0.002 | inactive: -0.011 | inactive: 0 | inactive: 0.076 | inactive: -0.042 | inactive: 0.104 | inactive: 0.099 | inactive: -0.059 | inactive: 0.089 | inactive: 0.116 | inactive: 0.037 | inactive: -0.008 | inactive: -0.056 | inactive: -0.025
MAP3K2 (UniProt Q9Y2U5) | inactive: 0.028 | inactive: 0.208 | inactive: -0.22 | inactive: -0.028 | inactive: 0.043 | inactive: 0.117 | inactive: 0.137 | inactive: 0.076 | inactive: -0.056 | inactive: 0.001 | inactive: -0.04 | inactive: 0.003 | inactive: 0.003 | inactive: 0.028 | inactive: 0.016 | inactive: -0.055 | inactive: -0.068 | inactive: -0.057 | inactive: -0.039 | 
MAPK14 isoform 2 (UniProt Q16539) | inactive: -0.011 | inactive: 0.001 | active: 1.01 | active: 1.48 | inactive: -0.096 | inactive: -0.218 | inactive: -0.089 | inactive: -0.141 | inactive: -0.013 | active: 1.9 | inactive: 0.649 | inactive: 0.024 | inactive: 0.036 | inactive: 0.064 | inactive: 0.095 | inactive: 0.219 | inactive: 0.026 | inactive: 0.107 | inactive: -0.005 | 
MAD2L1 (UniProt Q13257) | inactive: 0 | inactive: -0.095 | inactive: 0.008 | inactive: -0.004 | inactive: -0.057 | inactive: -0.112 | inactive: -0.018 | inactive: 0.031 | inactive: -0.033 | inactive: 0.019 | inactive: -0.035 | inactive: -0.003 | inactive: 0.031 | inactive: -0.103 | inactive: 0.028 | inactive: 0.031 | inactive: -0.129 | inactive: 0.02 | inactive: 0.018 | 
LTN1 isoform 3 (UniProt O94822) | inactive: -0.05 | inactive: -0.015 | inactive: -0.02 | inactive: 0.007 | inactive: -0.136 | active: -0.305 | inactive: 0.055 | inactive: 0.098 | inactive: 0.093 | inactive: -0.013 | inactive: -0.031 | inactive: -0.008 | inactive: -0.006 | inactive: 0.104 | inactive: 0.039 | inactive: 0.058 | inactive: 0.017 | inactive: 0.065 | inactive: 0.042 | 
MAP4 (UniProt P27816) | inactive: 0.003 | inactive: 0 | inactive: 0.012 | inactive: 0.025 | inactive: 0.012 | inactive: 0.076 | inactive: 0.019 | inactive: 0.001 | inactive: 0.08 | inactive: -0.006 | inactive: 0.007 | inactive: -0.018 | inactive: -0.01 | inactive: 0.003 | inactive: -0.018 | inactive: -0.007 | inactive: 0.002 | inactive: -0.004 | inactive: -0.046 | 
MAPK9 (UniProt P45984) | inactive: -0.002 | inactive: -0.016 | active: 0.278 | inactive: 0.208 | inactive: 0.005 | inactive: -0.037 | inactive: -0.032 | inactive: -0.032 | inactive: 0 | inactive: 0 | inactive: -0.011 | inactive: -0.078 | inactive: 0.044 | inactive: -0.057 | inactive: -0.005 | inactive: -0.07 | inactive: 0.034 | inactive: 0.038 | inactive: -0.022 | 

Quoted from the listing:
LTN1 isoform 3 (UniProt O94822) | log2 fold change [2]: inactive: -0.015
LSS (UniProt P48449) | log2 fold change [18]: active: 0.766
